Experimental findings from publication PMC8224940 are described below.

Sequences of proteins named here, by UniProt entry; tags and fusion partners are left off. A change or cut given only in a name is not applied to a line headed by its entry.
UniProt Q9BVS4: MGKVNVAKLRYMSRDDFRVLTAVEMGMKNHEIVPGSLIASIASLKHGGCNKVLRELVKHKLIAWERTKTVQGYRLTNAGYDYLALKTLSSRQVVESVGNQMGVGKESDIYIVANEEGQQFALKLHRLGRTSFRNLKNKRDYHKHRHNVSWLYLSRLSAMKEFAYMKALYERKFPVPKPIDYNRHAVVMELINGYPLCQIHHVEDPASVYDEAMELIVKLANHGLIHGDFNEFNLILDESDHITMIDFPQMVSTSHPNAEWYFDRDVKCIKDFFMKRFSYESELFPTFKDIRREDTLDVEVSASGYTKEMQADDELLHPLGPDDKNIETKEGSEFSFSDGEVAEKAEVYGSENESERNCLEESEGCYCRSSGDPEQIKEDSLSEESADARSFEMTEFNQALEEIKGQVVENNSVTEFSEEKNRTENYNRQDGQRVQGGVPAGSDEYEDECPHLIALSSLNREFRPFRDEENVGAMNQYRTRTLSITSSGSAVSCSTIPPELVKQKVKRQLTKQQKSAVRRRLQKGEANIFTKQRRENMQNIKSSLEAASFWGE

This test deals with T1, HA-tagged NOB1 (UniProt Q9ULX3).
T1 sequence: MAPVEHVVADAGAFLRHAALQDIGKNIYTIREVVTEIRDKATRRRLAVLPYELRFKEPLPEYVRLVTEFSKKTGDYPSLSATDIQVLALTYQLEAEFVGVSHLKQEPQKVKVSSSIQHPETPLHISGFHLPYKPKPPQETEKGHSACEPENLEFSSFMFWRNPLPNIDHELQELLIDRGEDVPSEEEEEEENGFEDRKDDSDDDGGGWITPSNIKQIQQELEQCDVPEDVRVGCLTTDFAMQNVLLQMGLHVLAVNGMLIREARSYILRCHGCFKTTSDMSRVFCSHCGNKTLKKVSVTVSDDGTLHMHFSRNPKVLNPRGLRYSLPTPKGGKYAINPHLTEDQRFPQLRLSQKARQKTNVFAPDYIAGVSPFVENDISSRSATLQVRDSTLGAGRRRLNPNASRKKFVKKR
Nature of the test: co-IP; HA-NOB1 immunoprecipitated from HEK293 cells co-transfected with Flag-RIOK2 (WT, S483A or S483D) (buffer A with 0.1 M KCl); co-purified proteins of pre-40S particles detected by Western blot. In general terms: Immunoblotting shows a protein as a band on a membrane.

No constants are given. Whether binding was seen depends on the method and setting. Binding seen in cells or lysates may run through a third protein. Some entries that bind do so weakly or less than the wild type. Tags and fused reporters may be left off the sequences shown.

On to “Flag-tagged RIOK2^S483A (from UniProt Q9BVS4 1-552)”, for which the binding result is on record as “binds”.

“Flag-tagged RIOK2^WT (from UniProt Q9BVS4 1-552)”: the binding result is “binds”.
